Reference: patent publication US9921475B1, “Photoacid-generating compound, polymer derived therefrom, photoresist composition including the photoacid-generating compound or polymer, and method of forming a photoresist relief image” (Rohm and Haas Electronic Materials LLC, priority 2016, dated 2018)

Experiment: Acid diffusion length evaluation (bilayer acid source / acid detector layer, 193 nm exposure)
Assay type: physicochemical
Conditions: for DL (nm) at PEB 100° C.: post-exposure bake 100° C. for 60 seconds; for DL (nm) at PEB 110° C.: post-exposure bake 110° C. for 60 seconds

| SMILES | DL (nm) at PEB 100° C. [nm] | DL (nm) at PEB 110° C. [nm] |
| --- | --- | --- |
| O=C(OCC(F)(F)S(=O)(=O)O)C12CC3CC(CC(C3)C1)C2 [Comparative PAG 1] | 10.9 | 37.4 |
| O=C(OCC(F)(F)S(=O)(=O)O)C12CC3CC(CC(O)(C3)C1)C2 [Comparative PAG 2] | 8.1 | 21.9 |
| O=C(OCC12CC3CC(CC(O)(C3)C1)C2)C(F)(F)S(=O)(=O)O [Comparative PAG 3] | 5.1 | 19.4 |
